The target of one test is GFP-tagged DDX6 (human) (UniProt P26196). Kind of test: co-IP.
For test [1], the target named is eIF4E (human (endogenous in HEK293T and U-2 OS)) (UniProt P06730). Kind of test: pull-down.
Test [2] addresses SFB-tagged IP6K1 (mouse) (UniProt Q6PD10). Kind of test: pull-down.
The target of test [3] is eIF4E (human (endogenous in HEK293T and U-2 OS)) (UniProt P06730). Kind of test: pull-down. The source holds these as a separate data set.
Test [4] has as its target SFB-tagged IP6K1 (mouse) (UniProt Q6PD10). Kind of test: pull-down. The source holds these as a separate data set.
For test [5] the target is unchanged. Kind of test: co-IP.

By UniProt entry, the sequences of proteins in these tests, tags left out.
UniProt P26196: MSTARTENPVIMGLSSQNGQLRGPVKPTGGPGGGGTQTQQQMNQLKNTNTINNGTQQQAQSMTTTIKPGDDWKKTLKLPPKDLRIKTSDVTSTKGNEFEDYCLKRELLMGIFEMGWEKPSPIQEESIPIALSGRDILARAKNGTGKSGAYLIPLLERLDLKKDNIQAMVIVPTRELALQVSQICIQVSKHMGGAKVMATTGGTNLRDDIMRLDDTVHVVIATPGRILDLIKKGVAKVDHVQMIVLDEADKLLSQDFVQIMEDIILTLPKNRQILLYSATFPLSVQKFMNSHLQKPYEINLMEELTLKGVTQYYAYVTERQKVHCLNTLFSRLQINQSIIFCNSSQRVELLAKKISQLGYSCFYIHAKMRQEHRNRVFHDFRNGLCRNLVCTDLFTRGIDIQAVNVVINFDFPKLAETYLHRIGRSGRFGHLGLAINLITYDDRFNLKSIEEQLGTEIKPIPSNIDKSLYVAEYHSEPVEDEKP
UniProt P06730: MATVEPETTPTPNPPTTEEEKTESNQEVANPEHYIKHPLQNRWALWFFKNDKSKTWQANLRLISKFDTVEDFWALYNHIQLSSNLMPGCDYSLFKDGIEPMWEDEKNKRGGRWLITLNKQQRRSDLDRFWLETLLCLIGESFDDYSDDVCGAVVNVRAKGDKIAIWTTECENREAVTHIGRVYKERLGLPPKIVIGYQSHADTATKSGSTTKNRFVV
UniProt Q6PD10: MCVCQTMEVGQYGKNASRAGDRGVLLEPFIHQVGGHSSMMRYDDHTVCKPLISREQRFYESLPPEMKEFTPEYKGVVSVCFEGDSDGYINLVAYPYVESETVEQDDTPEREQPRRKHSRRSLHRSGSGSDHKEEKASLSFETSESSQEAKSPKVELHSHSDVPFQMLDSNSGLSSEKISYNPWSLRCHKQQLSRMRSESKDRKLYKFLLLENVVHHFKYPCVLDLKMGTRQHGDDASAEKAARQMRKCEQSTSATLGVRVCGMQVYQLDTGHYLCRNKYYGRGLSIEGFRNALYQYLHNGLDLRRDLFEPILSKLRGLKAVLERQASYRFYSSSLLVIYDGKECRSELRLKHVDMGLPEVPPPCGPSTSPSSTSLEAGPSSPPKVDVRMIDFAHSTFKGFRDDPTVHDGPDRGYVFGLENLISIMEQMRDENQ
UniProt Q14240: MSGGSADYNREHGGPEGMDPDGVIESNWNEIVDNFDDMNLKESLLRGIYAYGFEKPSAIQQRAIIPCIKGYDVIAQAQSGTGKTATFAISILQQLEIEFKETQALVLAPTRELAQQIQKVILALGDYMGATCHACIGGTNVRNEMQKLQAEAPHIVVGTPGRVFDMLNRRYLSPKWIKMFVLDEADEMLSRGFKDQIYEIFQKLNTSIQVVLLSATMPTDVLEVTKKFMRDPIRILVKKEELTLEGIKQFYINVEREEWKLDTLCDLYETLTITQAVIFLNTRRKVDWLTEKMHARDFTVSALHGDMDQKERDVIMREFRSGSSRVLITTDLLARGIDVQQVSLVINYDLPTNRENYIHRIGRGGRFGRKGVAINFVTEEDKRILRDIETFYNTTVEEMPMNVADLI
UniProt Q04637: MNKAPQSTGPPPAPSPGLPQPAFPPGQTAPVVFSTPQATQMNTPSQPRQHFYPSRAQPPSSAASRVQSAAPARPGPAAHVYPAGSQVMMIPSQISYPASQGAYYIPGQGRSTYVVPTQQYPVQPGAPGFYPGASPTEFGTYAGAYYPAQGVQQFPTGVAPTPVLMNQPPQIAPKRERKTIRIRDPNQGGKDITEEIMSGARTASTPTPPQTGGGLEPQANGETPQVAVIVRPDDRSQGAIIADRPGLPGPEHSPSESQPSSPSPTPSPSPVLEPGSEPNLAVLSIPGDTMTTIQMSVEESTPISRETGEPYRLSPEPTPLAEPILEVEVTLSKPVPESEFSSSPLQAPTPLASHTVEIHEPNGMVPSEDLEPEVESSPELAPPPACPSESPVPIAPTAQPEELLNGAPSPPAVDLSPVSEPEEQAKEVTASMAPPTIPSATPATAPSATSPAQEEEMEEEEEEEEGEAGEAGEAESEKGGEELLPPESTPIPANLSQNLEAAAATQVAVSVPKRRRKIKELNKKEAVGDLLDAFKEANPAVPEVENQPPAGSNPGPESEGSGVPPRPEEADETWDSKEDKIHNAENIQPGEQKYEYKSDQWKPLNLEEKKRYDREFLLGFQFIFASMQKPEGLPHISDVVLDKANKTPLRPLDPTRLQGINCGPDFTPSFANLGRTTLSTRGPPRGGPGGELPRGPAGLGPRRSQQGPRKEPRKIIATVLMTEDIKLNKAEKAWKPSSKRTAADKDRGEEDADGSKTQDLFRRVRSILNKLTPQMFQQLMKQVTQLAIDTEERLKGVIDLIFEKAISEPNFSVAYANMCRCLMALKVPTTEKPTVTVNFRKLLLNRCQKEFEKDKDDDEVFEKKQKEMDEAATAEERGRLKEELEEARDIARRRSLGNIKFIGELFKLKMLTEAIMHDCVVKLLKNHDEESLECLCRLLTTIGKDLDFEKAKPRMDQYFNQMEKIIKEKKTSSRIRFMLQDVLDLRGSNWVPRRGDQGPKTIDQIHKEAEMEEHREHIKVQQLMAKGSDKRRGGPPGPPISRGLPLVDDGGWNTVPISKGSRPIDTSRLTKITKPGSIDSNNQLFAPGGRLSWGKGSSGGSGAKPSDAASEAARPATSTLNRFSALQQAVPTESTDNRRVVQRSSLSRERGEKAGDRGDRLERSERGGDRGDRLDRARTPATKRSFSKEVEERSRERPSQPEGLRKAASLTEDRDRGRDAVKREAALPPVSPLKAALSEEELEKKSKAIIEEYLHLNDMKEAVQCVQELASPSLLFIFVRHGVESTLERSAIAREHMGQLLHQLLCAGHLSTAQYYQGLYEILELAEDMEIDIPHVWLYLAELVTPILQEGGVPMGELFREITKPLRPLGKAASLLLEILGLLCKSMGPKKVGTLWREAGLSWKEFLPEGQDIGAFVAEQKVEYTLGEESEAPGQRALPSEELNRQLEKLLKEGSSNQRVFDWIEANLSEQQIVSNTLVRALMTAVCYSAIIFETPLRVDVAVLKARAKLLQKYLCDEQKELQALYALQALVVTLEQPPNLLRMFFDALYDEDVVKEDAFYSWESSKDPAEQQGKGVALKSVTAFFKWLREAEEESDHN

Like-named read-outs stand apart in the source and are kept apart here. Results are given in words; binding and its absence hold for the method and conditions named. Binding seen in cells or lysates may run through a third protein. Some binding calls cover weakened binding; strength is not graded here.

As to eIF4E (from UniProt P06730 1-217), the binding result with GFP-tagged DDX6 (human) is reported as “binds”.

Turning to “eIF4A2 (from UniProt Q14240 1-407) (enzyme)”, the binding entry (in test [1]; in the test with SFB-tagged IP6K1 (mouse) [2]) was “binds” each time.

For eIF4G1 (from UniProt Q04637 1-1599), in the test with SFB-tagged IP6K1 (mouse) [2], the binding entry was “binds”.

B1: 4E-T (protein, UniProt Q9NRA8 1-985)
chain: MDRRSMGETESGDAFLDLKKPPASKCPHRYTKEELLDIKELPHSKQRPSCLSEKYDSDGVWDPEKWHASLYPASGRSSPVESLKKELDTDRPSLVRRIVDPRERVKEDDLDVVLSPQRRSFGGGCHVTAAVSSRRSGSPLEKDSDGLRLLGGRRIGSGRIISARTFEKDHRLSDKDLRDLRDRDRERDFKDKRFRREFGDSKRVFGERRRNDSYTEEEPEWFSAGPTSQSETIELTGFDDKILEEDHKGRKRTRRRTASVKEGIVECNGGVAEEDEVEVILAQEPAADQEVPRDAVLPEQSPGDFDFNEFFNLDKVPCLASMIEDVLGEGSVSASRFSRWFSNPSRSGSRSSSLGSTPHEELERLAGLEQAILSPGQNSGNYFAPIPLEDHAENKVDILEMLQKAKVDLKPLLSSLSANKEKLKESSHSGVVLSVEEVEAGLKGLKVDQQVKNSTPFMAEHLEETLSAVTNNRQLKKDGDMTAFNKLVSTMKASGTLPSQPKVSRNLESHLMSPAEIPGQPVPKNILQELLGQPVQRPASSNLLSGLMGSLEPTTSLLGQRAPSPPLSQVFQTRAASADYLRPRIPSPIGFTPGPQQLLGDPFQGMRKPMSPITAQMSQLELQQAALEGLALPHDLAVQAANFYQPGFGKPQVDRTRDGFRNRQQRVTKSPAPVHRGNSSSPAPAASITSMLSPSFTPTSVIRKMYESKEKSKEEPASGKAALGDSKEDTQKASEENLLSSSSVPSADRDSSPTTNSKLSALQRSSCSTPLSQANRYTKEQDYRPKATGRKTPTLASPVPTTPFLRPVHQVPLVPHVPMVRPAHQLHPGLVQRMLAQGVHPQHLPSLLQTGVLPPGMDLSHLQGISGPILGQPFYPLPAASHPLLNPRPGTPLHLAMVQQQLQRSVLHPPGSGSHAAAVSVQTTPQNVPSRSGLPHMHSQLEHRPSQRSSSPVGLAKWFGSDVLQQPLPSMPAKVISVDELEYRQ
B1: the binding entry (in test [3]; with GFP-tagged DDX6 (human)) was “binds” throughout.

B2: EDC4 (protein, UniProt Q6P2E9 1-1401)
chain: MASCASIDIEDATQHLRDILKLDRPAGGPSAESPRPSSAYNGDLNGLLVPDPLCSGDSTSANKTGLRTMPPINLQEKQVICLSGDDSSTCIGILAKEVEIVASSDSSISSKARGSNKVKIQPVAKYDWEQKYYYGNLIAVSNSFLAYAIRAANNGSAMVRVISVSTSERTLLKGFTGSVADLAFAHLNSPQLACLDEAGNLFVWRLALVNGKIQEEILVHIRQPEGTPLNHFRRIIWCPFIPEESEDCCEESSPTVALLHEDRAEVWDLDMLRSSHSTWPVDVSQIKQGFIVVKGHSTCLSEGALSPDGTVLATASHDGYVKFWQIYIEGQDEPRCLHEWKPHDGRPLSCLLFCDNHKKQDPDVPFWRFLITGADQNRELKMWCTVSWTCLQTIRFSPDIFSSVSVPPSLKVCLDLSAEYLILSDVQRKVLYVMELLQNQEEGHACFSSISEFLLTHPVLSFGIQVVSRCRLRHTEVLPAEEENDSLGADGTHGAGAMESAAGVLIKLFCVHTKALQDVQIRFQPQLNPDVVAPLPTHTAHEDFTFGESRPELGSEGLGSAAHGSQPDLRRIVELPAPADFLSLSSETKPKLMTPDAFMTPSASLQQITASPSSSSSGSSSSSSSSSSSLTAVSAMSSTSAVDPSLTRPPEELTLSPKLQLDGSLTMSSSGSLQASPRGLLPGLLPAPADKLTPKGPGQVPTATSALSLELQEVEPLGLPQASPSRTRSPDVISSASTALSQDIPEIASEALSRGFGSSAPEGLEPDSMASAASALHLLSPRPRPGPELGPQLGLDGGPGDGDRHNTPSLLEAALTQEASTPDSQVWPTAPDITRETCSTLAESPRNGLQEKHKSLAFHRPPYHLLQQRDSQDASAEQSDHDDEVASLASASGGFGTKVPAPRLPAKDWKTKGSPRTSPKLKRKSKKDDGDAAMGSRLTEHQVAEPPEDWPALIWQQQRELAELRHSQEELLQRLCTQLEGLQSTVTGHVERALETRHEQEQRRLERALAEGQQRGGQLQEQLTQQLSQALSSAVAGRLERSIRDEIKKTVPPCVSRSLEPMAGQLSNSVATKLTAVEGSMKENISKLLKSKNLTDAIARAAADTLQGPMQAAYREAFQSVVLPAFEKSCQAMFQQINDSFRLGTQEYLQQLESHMKSRKAREQEAREPVLAQLRGLVSTLQSATEQMAATVAGSVRAEVQHQLHVAVGSLQESILAQVQRIVKGEVSVALKEQQAAVTSSIMQAMRSAAGTPVPSAHLDCQAQQAHILQLLQQGHLNQAFQQALTAADLNLVLYVCETVDPAQVFGQPPCPLSQPVLLSLIQQLASDLGTRTDLKLSYLEEAVMHLDHSDPITRDHMGSVMAQVRQKLFQFLQAEPHNSLGKAARRLSLMLHGLVTPSLP
Consider B2, for which the binding result in the test with SFB-tagged IP6K1 (mouse) [4], in the test with GFP-tagged DDX6 (human) and with SFB-tagged IP6K1 (mouse) [5] was “binds” throughout.

(Values after publication doi:10.1101/2020.07.13.199828.)
